Experimental data as given in publication PMC9445010.
No constants are given. Whether binding was seen depends on the method and setting. Some results given as binding are weak or reduced against the parent protein; the word gives no strength. One block for each binder: values may come before it.

Target: T1, PmoB (Methylococcus capsulatus (Bath) (endogenous in M. capsulatus (Bath))) (UniProt G1UBD1)
T1 sequence: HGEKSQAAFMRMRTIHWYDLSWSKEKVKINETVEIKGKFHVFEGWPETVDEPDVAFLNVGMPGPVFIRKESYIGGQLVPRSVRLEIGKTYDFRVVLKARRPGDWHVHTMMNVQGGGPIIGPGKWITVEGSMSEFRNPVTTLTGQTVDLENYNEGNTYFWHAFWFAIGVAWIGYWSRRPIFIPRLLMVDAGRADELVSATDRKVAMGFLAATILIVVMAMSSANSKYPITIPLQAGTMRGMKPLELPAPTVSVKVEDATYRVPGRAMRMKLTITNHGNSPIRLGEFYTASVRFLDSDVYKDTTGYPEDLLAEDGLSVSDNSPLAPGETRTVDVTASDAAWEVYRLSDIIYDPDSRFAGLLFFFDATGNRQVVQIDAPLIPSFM
Assay: cryo-EM structure; cryoET with subtomogram averaging of isolated M. capsulatus (Bath) membranes, no detergent; 25 mM PIPES pH 7.3, 250 mM NaCl; single trimer 4.8 Å, 7-particle unit 10 Å, three trimers 12 Å; 3-fold symmetry applied

binding: binds
B1: PmoB (protein, UniProt G1UBD1 33-414)
chain: T1 sequence

binding: binds
B2: PmoA (protein, UniProt Q607G3 1-247)
chain: MSAAQSAVRSHAEAVQVSRTIDWMALFVVFFVIVGSYHIHAMLTMGDWDFWSDWKDRRLWVTVTPIVLVTFPAAVQSYLWERYRLPWGATVCVLGLLLGEWINRYFNFWGWTYFPINFVFPASLVPGAIILDTVLMLSGSYLFTAIVGAMGWGLIFYPGNWPIIAPLHVPVEYNGMLMSIADIQGYNYVRTGTPEYIRMVEKGTLRTFGKDVAPVSAFFSAFMSILIYFMWHFIGRWFSNERFLQST
